Test results reported in the supplement of paper PMC10849652.
This is one part of the list.

Chains of the proteins cited; added tags and fusions are not shown. Lines headed by an entry give the natural chain unless they say otherwise; changes in a name come on top.
UniProt Q9ULF5: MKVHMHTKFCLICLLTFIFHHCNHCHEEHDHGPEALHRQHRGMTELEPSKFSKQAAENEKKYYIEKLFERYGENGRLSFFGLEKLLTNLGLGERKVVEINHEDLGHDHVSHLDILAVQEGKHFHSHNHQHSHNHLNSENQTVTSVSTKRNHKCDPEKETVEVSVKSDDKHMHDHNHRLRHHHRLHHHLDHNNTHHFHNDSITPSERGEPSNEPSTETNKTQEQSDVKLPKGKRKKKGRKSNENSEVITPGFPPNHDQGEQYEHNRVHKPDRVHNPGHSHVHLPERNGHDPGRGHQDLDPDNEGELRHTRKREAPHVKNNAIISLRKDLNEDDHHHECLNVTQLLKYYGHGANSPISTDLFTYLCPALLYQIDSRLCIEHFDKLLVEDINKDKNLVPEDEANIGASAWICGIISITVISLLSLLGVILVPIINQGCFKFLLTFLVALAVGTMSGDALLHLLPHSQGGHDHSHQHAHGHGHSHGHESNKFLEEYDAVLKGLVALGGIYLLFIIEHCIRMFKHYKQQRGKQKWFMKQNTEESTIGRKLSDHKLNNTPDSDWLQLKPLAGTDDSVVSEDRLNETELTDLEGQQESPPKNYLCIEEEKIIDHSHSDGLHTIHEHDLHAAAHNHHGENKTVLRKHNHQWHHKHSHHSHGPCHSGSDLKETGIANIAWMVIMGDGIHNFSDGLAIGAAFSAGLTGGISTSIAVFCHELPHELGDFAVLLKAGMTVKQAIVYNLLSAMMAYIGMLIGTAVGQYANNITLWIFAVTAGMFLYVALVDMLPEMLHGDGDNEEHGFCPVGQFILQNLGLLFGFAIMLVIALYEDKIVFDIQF
UniProt P08195: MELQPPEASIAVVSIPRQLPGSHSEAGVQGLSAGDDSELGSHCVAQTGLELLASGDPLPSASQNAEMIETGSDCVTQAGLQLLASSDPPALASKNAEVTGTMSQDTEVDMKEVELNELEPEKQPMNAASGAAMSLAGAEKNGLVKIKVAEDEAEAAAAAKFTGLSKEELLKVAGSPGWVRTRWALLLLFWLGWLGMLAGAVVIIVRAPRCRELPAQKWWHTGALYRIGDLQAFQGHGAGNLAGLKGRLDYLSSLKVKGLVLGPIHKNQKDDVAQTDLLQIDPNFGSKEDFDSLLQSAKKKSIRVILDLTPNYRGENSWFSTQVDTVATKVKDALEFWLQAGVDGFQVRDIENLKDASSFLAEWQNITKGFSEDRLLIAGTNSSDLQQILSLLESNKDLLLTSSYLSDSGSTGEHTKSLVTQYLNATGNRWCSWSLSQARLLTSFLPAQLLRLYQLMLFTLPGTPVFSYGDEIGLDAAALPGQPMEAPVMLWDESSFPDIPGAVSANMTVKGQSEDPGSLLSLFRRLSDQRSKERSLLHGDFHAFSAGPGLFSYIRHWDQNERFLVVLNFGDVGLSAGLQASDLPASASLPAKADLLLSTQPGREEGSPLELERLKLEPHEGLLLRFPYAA
UniProt Q08357: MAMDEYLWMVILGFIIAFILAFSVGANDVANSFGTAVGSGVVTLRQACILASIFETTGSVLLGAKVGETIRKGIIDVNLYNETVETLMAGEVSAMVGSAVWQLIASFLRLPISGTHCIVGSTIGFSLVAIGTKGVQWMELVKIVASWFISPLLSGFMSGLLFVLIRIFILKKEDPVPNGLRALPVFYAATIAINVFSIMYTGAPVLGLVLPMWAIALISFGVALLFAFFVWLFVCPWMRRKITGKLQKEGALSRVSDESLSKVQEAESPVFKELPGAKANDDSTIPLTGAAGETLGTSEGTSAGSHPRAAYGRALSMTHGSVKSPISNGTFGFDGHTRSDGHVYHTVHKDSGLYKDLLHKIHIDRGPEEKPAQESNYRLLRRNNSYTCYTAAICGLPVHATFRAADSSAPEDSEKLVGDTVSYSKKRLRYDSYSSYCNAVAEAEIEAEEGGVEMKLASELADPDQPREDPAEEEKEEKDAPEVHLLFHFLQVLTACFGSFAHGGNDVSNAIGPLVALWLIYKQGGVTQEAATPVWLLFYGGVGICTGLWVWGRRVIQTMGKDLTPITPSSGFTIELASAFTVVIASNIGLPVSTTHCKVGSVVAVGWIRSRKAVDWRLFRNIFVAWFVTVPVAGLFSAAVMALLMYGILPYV
UniProt P48029: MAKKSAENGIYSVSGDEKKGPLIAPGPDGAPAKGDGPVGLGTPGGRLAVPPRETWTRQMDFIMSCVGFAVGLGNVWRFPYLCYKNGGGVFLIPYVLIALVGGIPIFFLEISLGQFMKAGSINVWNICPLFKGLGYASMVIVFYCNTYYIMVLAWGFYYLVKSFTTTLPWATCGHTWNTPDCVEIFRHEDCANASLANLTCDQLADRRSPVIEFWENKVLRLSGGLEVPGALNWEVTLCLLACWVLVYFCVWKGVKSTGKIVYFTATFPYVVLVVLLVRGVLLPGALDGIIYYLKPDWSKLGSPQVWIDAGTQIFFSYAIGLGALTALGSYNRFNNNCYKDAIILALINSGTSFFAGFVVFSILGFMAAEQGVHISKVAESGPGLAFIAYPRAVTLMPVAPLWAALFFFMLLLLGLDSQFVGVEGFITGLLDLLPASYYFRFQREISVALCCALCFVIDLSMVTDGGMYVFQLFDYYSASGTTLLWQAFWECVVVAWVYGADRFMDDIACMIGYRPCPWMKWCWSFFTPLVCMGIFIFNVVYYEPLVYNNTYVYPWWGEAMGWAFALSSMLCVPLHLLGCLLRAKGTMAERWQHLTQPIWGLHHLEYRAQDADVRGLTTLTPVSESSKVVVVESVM
UniProt P53007, whole entry, looked up: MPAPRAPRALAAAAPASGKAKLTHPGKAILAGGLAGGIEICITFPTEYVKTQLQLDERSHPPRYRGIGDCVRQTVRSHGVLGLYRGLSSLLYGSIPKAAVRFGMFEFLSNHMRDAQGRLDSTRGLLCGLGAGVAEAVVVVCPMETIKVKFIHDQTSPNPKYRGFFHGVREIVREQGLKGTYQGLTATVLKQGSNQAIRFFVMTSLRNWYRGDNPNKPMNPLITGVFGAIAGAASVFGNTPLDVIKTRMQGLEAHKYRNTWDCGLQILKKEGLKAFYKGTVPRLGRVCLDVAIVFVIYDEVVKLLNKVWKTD
UniProt Q9BWU0: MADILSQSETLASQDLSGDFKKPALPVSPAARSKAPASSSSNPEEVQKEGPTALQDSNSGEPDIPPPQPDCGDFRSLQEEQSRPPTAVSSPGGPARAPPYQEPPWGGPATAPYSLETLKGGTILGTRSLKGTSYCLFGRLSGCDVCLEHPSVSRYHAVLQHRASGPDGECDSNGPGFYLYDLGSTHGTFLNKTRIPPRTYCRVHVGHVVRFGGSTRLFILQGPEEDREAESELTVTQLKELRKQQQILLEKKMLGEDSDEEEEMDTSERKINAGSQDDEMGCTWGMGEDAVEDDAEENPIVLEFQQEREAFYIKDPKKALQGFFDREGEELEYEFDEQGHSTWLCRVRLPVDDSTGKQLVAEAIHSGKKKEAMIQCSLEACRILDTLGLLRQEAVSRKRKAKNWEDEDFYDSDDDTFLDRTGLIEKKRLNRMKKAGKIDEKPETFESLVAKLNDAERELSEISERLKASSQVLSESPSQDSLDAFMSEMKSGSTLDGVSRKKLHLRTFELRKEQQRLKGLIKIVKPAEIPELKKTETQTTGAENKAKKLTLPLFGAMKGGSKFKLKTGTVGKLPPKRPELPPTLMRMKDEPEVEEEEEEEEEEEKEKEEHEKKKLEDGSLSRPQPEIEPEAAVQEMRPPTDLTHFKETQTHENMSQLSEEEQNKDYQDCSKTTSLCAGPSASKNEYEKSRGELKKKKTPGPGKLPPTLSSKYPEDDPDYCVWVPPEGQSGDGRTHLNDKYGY
UniProt Q8TB61: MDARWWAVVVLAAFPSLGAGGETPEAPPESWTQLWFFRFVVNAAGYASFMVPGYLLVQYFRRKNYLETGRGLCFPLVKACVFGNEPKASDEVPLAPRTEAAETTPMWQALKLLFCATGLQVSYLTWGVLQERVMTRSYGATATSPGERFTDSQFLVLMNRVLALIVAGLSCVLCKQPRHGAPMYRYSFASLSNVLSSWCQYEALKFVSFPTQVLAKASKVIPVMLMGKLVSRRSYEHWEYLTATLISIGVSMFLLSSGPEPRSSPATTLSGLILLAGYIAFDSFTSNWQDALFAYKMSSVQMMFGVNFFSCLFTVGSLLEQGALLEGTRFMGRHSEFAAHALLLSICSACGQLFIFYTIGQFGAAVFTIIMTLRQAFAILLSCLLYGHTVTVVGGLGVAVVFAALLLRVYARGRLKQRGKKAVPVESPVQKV
UniProt P78381: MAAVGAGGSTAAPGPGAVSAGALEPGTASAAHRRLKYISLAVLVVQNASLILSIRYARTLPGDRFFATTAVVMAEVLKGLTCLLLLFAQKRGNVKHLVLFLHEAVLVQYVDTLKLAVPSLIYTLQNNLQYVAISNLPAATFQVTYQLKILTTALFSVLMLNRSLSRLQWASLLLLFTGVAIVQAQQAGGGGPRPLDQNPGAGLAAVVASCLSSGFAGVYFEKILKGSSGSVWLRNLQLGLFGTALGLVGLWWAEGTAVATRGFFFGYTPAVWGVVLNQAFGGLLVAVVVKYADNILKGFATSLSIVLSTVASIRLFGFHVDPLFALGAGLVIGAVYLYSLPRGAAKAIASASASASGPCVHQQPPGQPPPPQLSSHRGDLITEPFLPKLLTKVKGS
UniProt Q9H936: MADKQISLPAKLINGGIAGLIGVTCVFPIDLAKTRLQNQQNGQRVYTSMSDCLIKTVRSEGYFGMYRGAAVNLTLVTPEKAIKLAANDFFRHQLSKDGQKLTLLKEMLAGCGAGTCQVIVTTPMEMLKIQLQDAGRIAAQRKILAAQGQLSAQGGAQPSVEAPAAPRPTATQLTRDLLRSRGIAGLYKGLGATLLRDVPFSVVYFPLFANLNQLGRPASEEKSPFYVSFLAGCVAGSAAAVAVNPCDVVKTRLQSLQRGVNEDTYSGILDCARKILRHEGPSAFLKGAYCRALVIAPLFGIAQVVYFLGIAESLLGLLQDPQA
UniProt Q9H1U9: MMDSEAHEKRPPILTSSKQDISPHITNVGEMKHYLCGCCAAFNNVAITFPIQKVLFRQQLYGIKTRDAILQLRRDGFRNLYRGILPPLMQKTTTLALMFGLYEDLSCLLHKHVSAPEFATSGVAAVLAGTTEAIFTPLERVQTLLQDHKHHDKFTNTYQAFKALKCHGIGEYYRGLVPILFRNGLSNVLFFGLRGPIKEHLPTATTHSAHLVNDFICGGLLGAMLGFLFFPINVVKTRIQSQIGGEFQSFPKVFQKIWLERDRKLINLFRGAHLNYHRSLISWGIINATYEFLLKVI
UniProt Q9H0C2: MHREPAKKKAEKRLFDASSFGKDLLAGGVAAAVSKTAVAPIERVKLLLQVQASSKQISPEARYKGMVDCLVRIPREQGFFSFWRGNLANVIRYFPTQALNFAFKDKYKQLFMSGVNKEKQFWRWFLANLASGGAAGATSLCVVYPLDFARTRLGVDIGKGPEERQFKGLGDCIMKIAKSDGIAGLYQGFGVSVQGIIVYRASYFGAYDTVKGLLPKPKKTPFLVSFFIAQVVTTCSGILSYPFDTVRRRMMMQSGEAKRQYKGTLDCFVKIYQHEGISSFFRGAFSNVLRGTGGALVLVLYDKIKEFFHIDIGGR
UniProt Q9C0K1: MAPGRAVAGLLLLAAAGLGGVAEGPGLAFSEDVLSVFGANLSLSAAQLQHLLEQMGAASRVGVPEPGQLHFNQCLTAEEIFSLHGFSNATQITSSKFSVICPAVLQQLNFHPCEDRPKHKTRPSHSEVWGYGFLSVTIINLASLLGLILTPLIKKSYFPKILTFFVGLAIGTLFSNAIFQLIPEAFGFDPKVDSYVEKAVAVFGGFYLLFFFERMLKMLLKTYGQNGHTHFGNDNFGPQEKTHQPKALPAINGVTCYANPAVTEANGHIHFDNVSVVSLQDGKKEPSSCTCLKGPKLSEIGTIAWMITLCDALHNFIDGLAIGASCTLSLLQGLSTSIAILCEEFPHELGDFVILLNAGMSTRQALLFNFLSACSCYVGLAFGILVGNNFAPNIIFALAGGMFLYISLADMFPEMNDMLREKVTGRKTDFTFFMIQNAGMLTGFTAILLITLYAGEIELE
UniProt Q92504: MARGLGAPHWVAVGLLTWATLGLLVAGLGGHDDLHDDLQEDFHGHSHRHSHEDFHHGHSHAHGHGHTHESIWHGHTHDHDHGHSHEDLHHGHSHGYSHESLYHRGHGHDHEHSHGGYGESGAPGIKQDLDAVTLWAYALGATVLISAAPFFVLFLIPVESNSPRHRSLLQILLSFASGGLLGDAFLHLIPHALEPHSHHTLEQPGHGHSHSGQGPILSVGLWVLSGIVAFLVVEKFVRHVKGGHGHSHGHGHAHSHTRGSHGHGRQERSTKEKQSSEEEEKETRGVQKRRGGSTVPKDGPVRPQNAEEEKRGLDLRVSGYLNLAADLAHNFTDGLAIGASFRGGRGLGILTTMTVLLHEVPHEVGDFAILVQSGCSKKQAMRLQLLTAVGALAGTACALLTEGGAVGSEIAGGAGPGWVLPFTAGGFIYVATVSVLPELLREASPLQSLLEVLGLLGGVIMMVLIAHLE
UniProt L0R6Q1: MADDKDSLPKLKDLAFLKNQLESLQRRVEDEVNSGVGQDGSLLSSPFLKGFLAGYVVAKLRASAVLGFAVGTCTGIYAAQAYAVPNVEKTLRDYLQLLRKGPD

compound: NCC(=O)Nc1ccc(-n2nc(C(F)(F)F)cc2-c2ccc3c(ccc4ccccc43)c2)cc1; experiment: log2 fold change, soluble protein after heating vs DMSO (PISA); higher = thermal stabilisation; K562 cells, 10 uM, 30 min; active = over 0.2 and 3.5 SD of the protein, either way, in both replicates (recomputed)
Procedure, shortened: (§1)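 Thermal stability values are relative to control samples and come from duplicates. They are expressed as log2 fold changes. For measurement, K562 cells (2×10^6 cells/mL) received 10 μM compound for 30 min, and aliquots were heated for 3 min over 48°C-58°C, pooled, and extracted at 4°C in PBS with 0.5% NP-40. Soluble protein, the supernatant after 21,000xg for 90 min, was quantified by TMTpro 16plex LC-MS/MS with equalised channel sums.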

Question: With SLC39A10 (UniProt Q9ULF5) as the target, how does the log2 fold change read?
Answer: Its log2 fold change is inactive: 0.022.

Question: With SLC45A4 isoform 3 (UniProt Q5BKX6) as the target, how does the log2 fold change read?
Answer: The log2 fold change was inactive: 0.195.

Question: How did the log2 fold change turn out when SLC3A2 isoform 3 (UniProt P08195) was run?
Answer: Its log2 fold change is inactive: 0.09.

Question: For SLC20A2 (UniProt Q08357), which log2 fold change is on record?
Answer: The log2 fold change was inactive: 0.047.

Question: SLC25A25 isoform 3 (UniProt Q6KCM7) was tested. Which log2 fold change did it give?
Answer: Its log2 fold change is inactive: 0.032.

Question: With SLC39A6 (UniProt Q13433) as the target, how does the log2 fold change read?
Answer: The log2 fold change was inactive: -0.029.

Question: For SLC30A5 (UniProt Q8TAD4), which log2 fold change is on record?
Answer: The log2 fold change was inactive: -0.116.

Question: With SLC6A8 (UniProt P48029) as the target, how does the log2 fold change read?
Answer: The log2 fold change was inactive: -0.054.

Question: How did the log2 fold change turn out when SLC25A1 (UniProt P53007) was run?
Answer: The log2 fold change was inactive: 0.051.

Question: With SLC25A37 (UniProt Q9NYZ2) as the target, how does the log2 fold change read?
Answer: Its log2 fold change is inactive: 0.032.

Question: SLC4A1AP (UniProt Q9BWU0) was tested. Which log2 fold change did it give?
Answer: The log2 fold change was inactive: -0.075.

Question: Which log2 fold change does the source give for SLC30A1 (UniProt Q9Y6M5) here?
Answer: The log2 fold change was inactive: 0.144.

Question: With SLC20A1 (UniProt Q8WUM9) as the target, how does the log2 fold change read?
Answer: The log2 fold change was inactive: -0.098.

Question: Which log2 fold change does the source give for SLC5A6 (UniProt Q9Y289) here?
Answer: The log2 fold change was inactive: 0.013.

Question: How did the log2 fold change turn out when SLC35B2 (UniProt Q8TB61) was run?
Answer: The log2 fold change was inactive: 0.013.

Question: For SLC35A2 isoform 4 (UniProt P78381), which log2 fold change is on record?
Answer: The log2 fold change was inactive: 0.

Question: SLC25A24 (UniProt Q6NUK1) was tested. Which log2 fold change did it give?
Answer: Its log2 fold change is inactive: -0.014.

Question: With SLC1A4 (UniProt P43007) as the target, how does the log2 fold change read?
Answer: Its log2 fold change is inactive: 0.048.

Question: With SLC25A16 (UniProt P16260) as the target, how does the log2 fold change read?
Answer: The log2 fold change was inactive: 0.

Question: For SLC25A3 isoform 2 (UniProt Q00325), which log2 fold change is on record?
Answer: Its log2 fold change is inactive: 0.035.

Question: SLC25A22 (UniProt Q9H936) was tested. Which log2 fold change did it give?
Answer: The log2 fold change was inactive: -0.055.

Question: How did the log2 fold change turn out when SLC7A5 (UniProt Q01650) was run?
Answer: The log2 fold change was inactive: 0.042.

Question: SLC26A6 (UniProt Q9BXS9) was tested. Which log2 fold change did it give?
Answer: Its log2 fold change is inactive: -0.008.

Question: For SLC25A11 (UniProt Q02978), which log2 fold change is on record?
Answer: The log2 fold change was inactive: -0.001.

Question: How did the log2 fold change turn out when SLC2A3 (UniProt P11169) was run?
Answer: Its log2 fold change is inactive: 0.015.

Question: Which log2 fold change does the source give for SLC25A44 (UniProt Q96H78) here?
Answer: Its log2 fold change is inactive: 0.011.

Question: How did the log2 fold change turn out when SLC16A1 (UniProt P53985) was run?
Answer: The log2 fold change was inactive: -0.053.

Question: SLC25A5 (UniProt P05141) was tested. Which log2 fold change did it give?
Answer: Its log2 fold change is inactive: 0.019.

Question: With SLC29A1 isoform 2 (UniProt Q99808) as the target, how does the log2 fold change read?
Answer: The log2 fold change was inactive: 0.078.

Question: Which log2 fold change does the source give for SLC25A51 (UniProt Q9H1U9) here?
Answer: The log2 fold change was inactive: -0.03.

Question: For SLC38A10 (UniProt Q9HBR0), which log2 fold change is on record?
Answer: Its log2 fold change is inactive: 0.027.

Question: For SLC25A31 (UniProt Q9H0C2), which log2 fold change is on record?
Answer: Its log2 fold change is inactive: 0.026.

Question: How did the log2 fold change turn out when SLC25A40 (UniProt Q8TBP6) was run?
Answer: Its log2 fold change is inactive: 0.

Question: How did the log2 fold change turn out when SLC39A8 (UniProt Q9C0K1) was run?
Answer: The log2 fold change was inactive: -0.01.

Question: Which log2 fold change does the source give for SLC39A7 (UniProt Q92504) here?
Answer: The log2 fold change was inactive: -0.04.

Question: How did the log2 fold change turn out when SLC29A2 (UniProt Q14542) was run?
Answer: The log2 fold change was inactive: 0.022.

Question: Which log2 fold change does the source give for SLC39A14 (UniProt Q15043) here?
Answer: The log2 fold change was inactive: -0.002.

Question: With SLC35A4 (UniProt L0R6Q1) as the target, how does the log2 fold change read?
Answer: The log2 fold change was inactive: 0.021.

compound: Nc1ccccc1NC(=O)c1ccc(CNC(=O)OCc2cccnc2)cc1 [entinostat]; experiment: as above
Procedure, shortened: as §1

Question: For SLC39A10 (UniProt Q9ULF5), which log2 fold change is on record?
Answer: The log2 fold change was inactive: -0.065.

Question: Which log2 fold change does the source give for SLC45A4 isoform 3 (UniProt Q5BKX6) here?
Answer: The log2 fold change was inactive: -0.049.

Question: Which log2 fold change does the source give for SLC3A2 isoform 3 (UniProt P08195) here?
Answer: Its log2 fold change is inactive: -0.021.

Question: For SLC20A2 (UniProt Q08357), which log2 fold change is on record?
Answer: The log2 fold change was inactive: -0.061.

Question: SLC25A25 isoform 3 (UniProt Q6KCM7) was tested. Which log2 fold change did it give?
Answer: The log2 fold change was inactive: 0.001.

Question: How did the log2 fold change turn out when SLC39A6 (UniProt Q13433) was run?
Answer: The log2 fold change was inactive: -0.118.

Question: For SLC30A5 (UniProt Q8TAD4), which log2 fold change is on record?
Answer: Its log2 fold change is inactive: 0.05.

Question: With SLC6A8 (UniProt P48029) as the target, how does the log2 fold change read?
Answer: Its log2 fold change is inactive: -0.121.

Question: Which log2 fold change does the source give for SLC25A1 (UniProt P53007) here?
Answer: Its log2 fold change is inactive: 0.001.

Question: SLC25A37 (UniProt Q9NYZ2) was tested. Which log2 fold change did it give?
Answer: The log2 fold change was inactive: -0.024.

Question: Which log2 fold change does the source give for SLC4A1AP (UniProt Q9BWU0) here?
Answer: The log2 fold change was inactive: -0.027.

Question: How did the log2 fold change turn out when SLC30A1 (UniProt Q9Y6M5) was run?
Answer: Its log2 fold change is inactive: -0.003.

Question: With SLC20A1 (UniProt Q8WUM9) as the target, how does the log2 fold change read?
Answer: Its log2 fold change is inactive: -0.065.

Question: How did the log2 fold change turn out when SLC5A6 (UniProt Q9Y289) was run?
Answer: Its log2 fold change is inactive: -0.004.

Question: SLC35B2 (UniProt Q8TB61) was tested. Which log2 fold change did it give?
Answer: Its log2 fold change is inactive: -0.019.

Question: With SLC35A2 isoform 4 (UniProt P78381) as the target, how does the log2 fold change read?
Answer: Its log2 fold change is inactive: -0.025.

Question: For SLC25A24 (UniProt Q6NUK1), which log2 fold change is on record?
Answer: The log2 fold change was inactive: -0.039.

Question: Which log2 fold change does the source give for SLC1A4 (UniProt P43007) here?
Answer: Its log2 fold change is inactive: -0.034.

Question: With SLC25A16 (UniProt P16260) as the target, how does the log2 fold change read?
Answer: The log2 fold change was inactive: -0.085.

Question: With SLC25A3 isoform 2 (UniProt Q00325) as the target, how does the log2 fold change read?
Answer: The log2 fold change was inactive: -0.005.

Question: For SLC25A22 (UniProt Q9H936), which log2 fold change is on record?
Answer: Its log2 fold change is inactive: -0.012.

Question: SLC7A5 (UniProt Q01650) was tested. Which log2 fold change did it give?
Answer: The log2 fold change was inactive: 0.03.

Question: For SLC26A6 (UniProt Q9BXS9), which log2 fold change is on record?
Answer: The log2 fold change was inactive: -0.068.

Question: How did the log2 fold change turn out when SLC25A11 (UniProt Q02978) was run?
Answer: The log2 fold change was inactive: -0.002.

Question: With SLC2A3 (UniProt P11169) as the target, how does the log2 fold change read?
Answer: Its log2 fold change is inactive: -0.004.

Question: For SLC25A44 (UniProt Q96H78), which log2 fold change is on record?
Answer: The log2 fold change was inactive: -0.015.

Question: With SLC16A1 (UniProt P53985) as the target, how does the log2 fold change read?
Answer: Its log2 fold change is inactive: -0.132.

Question: Which log2 fold change does the source give for SLC25A5 (UniProt P05141) here?
Answer: Its log2 fold change is inactive: -0.04.

Question: How did the log2 fold change turn out when SLC29A1 isoform 2 (UniProt Q99808) was run?
Answer: The log2 fold change was inactive: -0.051.

Question: SLC25A51 (UniProt Q9H1U9) was tested. Which log2 fold change did it give?
Answer: The log2 fold change was inactive: -0.039.

Question: Which log2 fold change does the source give for SLC38A10 (UniProt Q9HBR0) here?
Answer: The log2 fold change was inactive: -0.033.

Question: How did the log2 fold change turn out when SLC25A31 (UniProt Q9H0C2) was run?
Answer: The log2 fold change was inactive: 0.018.

Question: How did the log2 fold change turn out when SLC25A40 (UniProt Q8TBP6) was run?
Answer: The log2 fold change was inactive: -0.022.

Question: How did the log2 fold change turn out when SLC39A8 (UniProt Q9C0K1) was run?
Answer: Its log2 fold change is inactive: 0.043.

Question: How did the log2 fold change turn out when SLC39A7 (UniProt Q92504) was run?
Answer: Its log2 fold change is inactive: -0.061.

Question: SLC29A2 (UniProt Q14542) was tested. Which log2 fold change did it give?
Answer: The log2 fold change was inactive: -0.027.

Question: Which log2 fold change does the source give for SLC39A14 (UniProt Q15043) here?
Answer: Its log2 fold change is inactive: -0.081.

Question: SLC35A4 (UniProt L0R6Q1) was tested. Which log2 fold change did it give?
Answer: The log2 fold change was inactive: 0.09.
